According to article PMC8786951 (Scientific Reports, 2022):
Where a sequence shows no end group, the ends are not given.

Test: peptide made by a vendor
Details: whole synthesis
[1] = 214nm, one disulfide bridge, sequence written open

| Substance | final HPLC purity [1] [%] | further results |
| --- | --- | --- |
| AVIPVSSPEPMEEASALQLLPGKI-NH2 | – | final HPLC purity (220nm): 95.083% |
| Met-Arg-Tyr-Met-Gly-Jle-Cys-Met-Lys-Lys-Gln-Tyr-Asn-Asn-Phe-lle-Pro-Phe-Pro-Cys-Leu-Arg-Se-NH2 | – | final HPLC purity (RP-HPLC, UV 214 nm or 220 nm (vendor certificate of analysis), Trifluoroacetate, one disulfide bridge, sequence written open): 98.39% |
| SHIRCLVNVIACY | 95.549 | – |
| SHVMCLVNLISCF | 95.039 | – |
| SHYNSMCMFNVVACY | 95.308 | – |
| TYSSMCMFNVVACY | 95.005 | – |
